Consider three molecules from article PMC8523169.

The target of assay [1] is T1, MukB long hinge (LH; amino acid residues 568–863) (E. coli) (UniProt P22523).
T1 sequence: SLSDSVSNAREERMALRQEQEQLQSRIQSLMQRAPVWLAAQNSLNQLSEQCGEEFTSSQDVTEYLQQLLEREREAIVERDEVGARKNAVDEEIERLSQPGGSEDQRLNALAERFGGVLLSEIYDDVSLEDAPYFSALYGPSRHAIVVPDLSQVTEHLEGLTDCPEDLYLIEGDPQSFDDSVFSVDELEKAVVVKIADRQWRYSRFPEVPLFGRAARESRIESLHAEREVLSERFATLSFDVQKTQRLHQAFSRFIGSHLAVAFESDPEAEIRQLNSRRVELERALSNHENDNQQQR
The assay is described as follows: native gel or EMSA; native PAGE; MatP or variants (7 µM) mixed with LH and/or 50 bp DNA at 1:1(:1), 30 min on ice; Coomassie and ethidium bromide staining; both purified.

The target of assay [2] is T1, MukB long hinge (LH; amino acid residues 568–863) (E. coli). The assay is described as follows: native MS; proteins buffer exchanged into 200 mM ammonium acetate pH 8.0, alone or mixed in different ratios (two or three components, with or without 50 bp DNA), 10 min on ice; both purified.
Assay [3] has as its target T2, MatPΔ18C (1–132), C-terminal 6xHis-tag (E. coli) (UniProt P0A8N0).
T2 sequence: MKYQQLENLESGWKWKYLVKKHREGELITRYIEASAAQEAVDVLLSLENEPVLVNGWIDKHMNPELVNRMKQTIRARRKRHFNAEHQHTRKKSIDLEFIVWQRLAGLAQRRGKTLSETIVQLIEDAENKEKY
Described as above.

In assay [4] the target is T3, Cy3B-labeled MatP-Cys-His (E. coli) (UniProt P0A8N0).
T3 sequence (chain, Cy3B maleimide on the single cysteine engineered into the C-terminal linker): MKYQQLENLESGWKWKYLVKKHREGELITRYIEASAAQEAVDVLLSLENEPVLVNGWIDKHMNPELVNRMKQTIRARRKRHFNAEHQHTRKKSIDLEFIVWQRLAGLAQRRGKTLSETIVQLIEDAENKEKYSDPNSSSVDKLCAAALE
The assay is described as follows: fluorescence correlation spectroscopy (FCS); titration at constant 1 nM MatP-Cy3B; 20 mM Tris-HCl pH 7.5, 50 mM NaCl, 0.3 mg/mL BSA, 2 mM DTT, 0.05% Tween-20; 22 °C; fitted to the Hill equation; both purified.

Results are given in words; binding and its absence hold for the method and conditions named. Sequences can lack the tags named with a protein.

B1: MatP^4E (K71E, Q72E, R75E, and R77E) (domain or fragment, UniProt P0A8N0 1-132)
chain: MKYQQLENLESGWKWKYLVKKHREGELITRYIEASAAQEAVDVLLSLENEPVLVNGWIDKHMNPELVNRMEETIEAERKRHFNAEHQHTRKKSIDLEFIVWQRLAGLAQRRGKTLSETIVQLIEDAENKEKY
For B1, the binding entry in assay [1] is “no binding (tested: MatP variant at 7 µM, 1:1 with LH)”.

B2: MatPΔ18C (1–132), C-terminal 6xHis-tag (domain or fragment, UniProt P0A8N0 1-132)
chain: MKYQQLENLESGWKWKYLVKKHREGELITRYIEASAAQEAVDVLLSLENEPVLVNGWIDKHMNPELVNRMKQTIRARRKRHFNAEHQHTRKKSIDLEFIVWQRLAGLAQRRGKTLSETIVQLIEDAENKEKY
Take B2: the binding result is “no binding (condition: with 50 bp matS DNA)” in assay [1] and “no binding (condition: MatP bound to 50 bp matS DNA)” in assay [2].

B3: full-length ParC, N-terminal 6xHis-tag (enzyme, UniProt P0AFI2 1-752)
chain: MSDMAERLALHEFTENAYLNYSMYVIMDRALPFIGDGLKPVQRRIVYAMSELGLNASAKFKKSARTVGDVLGKYHPHGDSACYEAMVLMAQPFSYRYPLVDGQGNWGAPDDPKSFAAMRYTESRLSKYSELLLSELGQGTADWVPNFDGTLQEPKMLPARLPNILLNGTTGIAVGMATDIPPHNLREVAQAAIALIDQPKTTLDQLLDIVQGPDYPTEAEIITSRAEIRKIYENGRGSVRMRAVWKKEDGAVVISALPHQVSGARVLEQIAAQMRNKKLPMVDDLRDESDHENPTRLVIVPRSNRVDMDQVMNHLFATTDLEKSYRINLNMIGLDGRPAVKNLLEILSEWLVFRRDTVRRRLNYRLEKVLKRLHILEGLLVAFLNIDEVIEIIRNEDEPKPALMSRFGLTETQAEAILELKLRHLAKLEEMKIRGEQSELEKERDQLQGILASERKMNNLLKKELQADAQAYGDDRRSPLQEREEAKAMSEHDMLPSEPVTIVLSQMGWVRSAKGHDIDAPGLNYKAGDSFKAAVKGKSNQPVVFVDSTGRSYAIDPITLPSARGQGEPLTGKLTLPPGATVDHMLMESDDQKLLMASDAGYGFVCTFNDLVARNRAGKALITLPENAHVMPPVVIEDASDMLLAITQAGRMLMFPVSDLPQLSKGKGNKIINIPSAEAARGEDGLAQLYVLPPQSTLTIHVGKRKIKLRPEELQKVTGERGRRGTLMRGLQRIDRVEIDSPRRASSGDSEE
As for B3, the binding result in assay [3] and in assay [4] was “no binding” in each case.
